These are yes or no findings as the source states them, for the method shown. Binding seen in cells or lysates may run through a third protein. Some binding calls cover weakened binding; strength is not graded here. For part of these data: Where a sequence is shown, tags or fusion partners need not be part of it.
Assays:
Annexin4-V5 = molecular target: T1, Annexin4-V5 (UniProt P09525); experiment: co-IP; A549 cells transiently transfected with Annexin4-V5, 48 h, treated with DSP; total lysates immunoprecipitated with anti-V5 antibody on Sepharose beads overnight at 4°C; immunoblot with anti-Fhit and anti-Annexin 4
T1 sequence: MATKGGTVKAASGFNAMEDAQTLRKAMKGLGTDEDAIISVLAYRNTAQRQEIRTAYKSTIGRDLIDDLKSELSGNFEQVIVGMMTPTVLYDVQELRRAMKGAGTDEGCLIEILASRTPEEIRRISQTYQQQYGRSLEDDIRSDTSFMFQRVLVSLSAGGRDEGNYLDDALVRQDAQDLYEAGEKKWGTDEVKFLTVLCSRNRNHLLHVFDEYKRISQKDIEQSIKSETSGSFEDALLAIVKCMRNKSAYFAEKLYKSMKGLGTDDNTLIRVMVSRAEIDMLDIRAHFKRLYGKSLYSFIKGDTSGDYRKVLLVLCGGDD

Protein sequences, listed by entry. Tags and fused reporters are not part of them.
UniProt P49789: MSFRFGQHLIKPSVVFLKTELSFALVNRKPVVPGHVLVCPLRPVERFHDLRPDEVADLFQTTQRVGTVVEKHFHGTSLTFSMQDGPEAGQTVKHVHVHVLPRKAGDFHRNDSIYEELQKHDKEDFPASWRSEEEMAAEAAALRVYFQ

[1] = molecular target: Fhit-His6 recombinant protein (human) (UniProt P49789); experiment: co-IP; A549 cells infected with AdFHIT-wild type or AdFHIT-His6 at MOI50, 48 h, treated with DSP; total lysates enriched in membrane fraction (Mem-PER kit); 1 mg lysate with Ni-NTA agarose magnetic nickel beads overnight at 4°C; immunoblot with anti-Fhit and anti-Annexin A4
[2] = molecular target: endogenous Fhit (HEK293) (human (endogenous in HEK293)) (UniProt P49789); experiment: co-IP; HEK293 cells mock treated or treated with paclitaxel (800 nM, 24 h); endogenous proteins, without DSP cross-linker; total lysates immunoprecipitated with Fhit antibody (IgG as control), immunoblot with Annexin 4 antiserum

With “Fhit (detected in the anti-V5 immunoprecipitate from A549 cells, Figure 1B) (from UniProt P49789 1-147)” the binding (Annexin4-V5) was “binds”.

B1: Annexin IV (PP4-X) (protein, UniProt P09525 1-319)
chain: T1 sequence
In the case of B1, the binding [1] is reported as “binds”.

B2: endogenous Annexin 4 (HEK293) (protein, UniProt P09525 1-319)
chain: T1 sequence
With B2 the binding [2] was “binds”.
